PubChem BioAssay AID540276 (National Center for Advancing Translational Sciences (NCATS), 2011)
“And” between values parts separate entries of the source, which are not always exact repeats. Equal values may be shown once. In all, about 300,000 compounds went through this assay and about 5,400 (1.8%) were called active. The inconclusive results got no clear call from the source; some entries with a clear call stand among them for comparison. The call rests on the fitted dose curve; tested in HEK293 cells. A potency beside an inconclusive call is a rough fit, not a confirmed value.

Experiment: qHTS for inhibitors of binding or entry into cells for Marburg Virus
Settings: Marburg virus pseudotyped entry inhibition, cell reporter; series mostly up to 37.8 µM
Potency means the concentration at half of the fitted maximal effect.

| Structure (SMILES) | Potency |
| --- | --- |
| CSCCC1NC2(C(=O)Nc3c(Cl)cccc32)[C@@H]2C(=O)N(C3CCCC3)C(=O)[C@H]12 (stereo partly specified) | inactive |
| CC(=O)N1c2ccc(S(=O)(=O)N(C)CC(=O)Nc3ccccc3C)cc2CC1C (stereo unspecified) | inactive |
| CCCN(CCC)C(=O)C(CCC(=O)O)NC(=O)c1ccccc1 (stereo unspecified) | inconclusive: 1.26 µM [inhibitor, full curve] and inconclusive: 29.1 µM [activator, partial curve, poor fit] |
| COc1ccc(N(C(=O)CNC(=O)c2cccs2)C(C(=O)NCC2CCCO2)c2ccccc2)cc1 (stereo unspecified) | inconclusive: 22.4 µM [inhibitor, single point] |
| O=C(CN1C(=O)NC2(CCCC2)C1=O)Nc1ccc(S(=O)(=O)N2CCOCC2)cc1 | inconclusive: 2.51 µM [inhibitor, partial curve, poor fit] |
| C=CCn1c(O)c(C2=c3ccccc3=NC2=O)c2ccccc21 | inconclusive: 1.78 µM [inhibitor, full curve, poor fit] |
| O=C(O)CNC(=S)NCc1ccccc1 | inconclusive: 3.16 µM [inhibitor, single point] |
| CCCCOc1ccc(S(=O)(=O)Nc2cccnc2)cc1 | inconclusive: 0.651 µM [inhibitor, full curve, poor fit] |
| O=C(Nc1nc2ccccc2s1)c1ccccc1 | inconclusive: 14.6 µM [inhibitor, partial curve, poor fit] |
| COc1cc(/C=N/NC(=O)c2ccc(CSc3nc4ccccc4[nH]3)cc2)cc(OC)c1OC | inconclusive: 35.5 µM [inhibitor, partial curve, poor fit] |
| O=C1CCC(=O)N1CN(Cc1ccco1)CN1C(=O)CCC1=O | inconclusive: 0.794 µM [inhibitor, single point] |
| Cc1cccc(Cc2c(C)nc3c(C(=O)N4CCN(Cc5ccc6c(c5)OCO6)CC4)cnn3c2C)c1 | inactive |
| COc1cccc(/C=N/NC(=O)c2[nH]nc3c2CCc2ccccc2-3)c1O | inconclusive: 10 µM [inhibitor, partial curve, poor fit] |
| O=C(N/N=C/c1ccc([N+](=O)[O-])o1)c1ccccc1-n1cccc1 | inconclusive: 35.5 µM [inhibitor, single point] |
| CC(C)CC(=O)NC(=S)Nc1cccc(NC(=O)c2ccccc2Cl)c1 | inactive |
| CCCCCCCCCCCCCCCC[n+]1ccc(/C=N/O)cc1 | active: 4.47 µM |
| CS(=O)(=O)N(CC(=O)N1CCCC1)c1ccc(Cl)cc1Cl | inactive |
| CC1CCC(N(CCCN)Cc2ccco2)CC1C (stereo unspecified) | inconclusive: 35.5 µM [inhibitor, single point] |
| CCOc1ccc2c(c1)OC(c1ccc(C)cc1)(C(F)(F)F)NC2=O (stereo unspecified) | inactive |
| COc1ccccc1NC(=O)c1ccccc1NC(=O)c1cccs1 | inconclusive: 12.6 µM [inhibitor, single point] |
| O=C(C1CC1)N1CCc2cc(Br)cc(S(=O)(=O)Nc3ccc(C(F)(F)F)cc3)c21 | inconclusive: 35.5 µM [inhibitor, single point] |
| Cc1ccc(NC(=O)Nc2ccc([N+](=O)[O-])cc2)nc1 | inactive |

| Structure (SMILES) | Potency |
| --- | --- |
| Nc1nc2ccccc2n1C(=O)CCc1ccccc1 | inconclusive: 0.146 µM [activator, full curve, poor fit] |
| CCN(CC)S(=O)(=O)c1ccc(N2CCN(C)CC2)c(NC(=O)COc2ccc(F)cc2Cl)c1 | inconclusive: 25.1 µM [inhibitor, single point] |
| CCCC(=O)OC(C(=O)Nc1cc(C(F)(F)F)ccc1Cl)c1ccccc1 (stereo unspecified) | inconclusive: 11.2 µM [activator, partial curve, poor fit] |
| O=C(CCc1nnc2n(Cc3ccccc3Cl)c(=O)c3ccccc3n12)Nc1ccccc1 | inactive |
| O=S(=O)(NC1CC1)c1cccc(S(=O)(=O)N2CCCC2)c1 | inconclusive: 5.62 µM [activator, single point] |
| COc1ccc(OCc2nc(N)nc(Nc3cccc(C)c3C)n2)cc1 | inconclusive: 0.1 µM [inhibitor, partial curve, poor fit] |
| O=C(/C=C/c1cccc([N+](=O)[O-])c1)NCCSc1ccccc1 | inactive |
| CCOC(=O)c1[nH]c(C)c(C(=O)NCc2ccccc2Cl)c1C | inconclusive: 35.5 µM [inhibitor, single point] |
| CCc1ccccc1NC(=O)CN1CCN(CC(=O)Nc2ccc(-c3ccccc3)cc2)CC1 | inconclusive: 17.8 µM [inhibitor, single point] |
| C=CCc1ccc(OCCCCN2CC(C)OC(C)C2)c(OC)c1 (stereo unspecified) | inconclusive: 16.4 µM [inhibitor, single point] |
| CC(=O)N(Cc1ccc(Br)cc1)c1cccc(C)c1C | inconclusive: 1.41 µM [inhibitor, partial curve, poor fit] |
| Cc1cc2oc3c(c(=O)c2cc1C)C(c1cccc(Br)c1)N(Cc1ccco1)C3=O (stereo unspecified) | inconclusive: 10 µM [inhibitor, partial curve] |
| O=C(COc1cccc2ccccc12)N/N=C/c1ccccc1OCc1ccc(C(=O)O)cc1 | inconclusive: 11.2 µM [activator, partial curve] |
| O=C1CN(c2nc3ccccc3n3cnnc23)CC(=O)N1CCc1ccccc1 | inconclusive: 6.51 µM [activator, single point] |
| COc1cc(/C=C(\C#N)C(=O)NCC2CCCO2)c([N+](=O)[O-])cc1OC (stereo unspecified) | inconclusive: 20.6 µM [inhibitor, single point] |
| COc1ccc(CNC(=O)C2CCN(S(=O)(=O)Cc3ccccc3)CC2)cc1 | inconclusive: 6.31 µM [activator, single point] |
| Cc1ccc(C(C)C)c(OCCNC(=O)c2ccccc2O)c1 | inconclusive: 10 µM [inhibitor, partial curve, poor fit] |
| O=C(Cc1ccccc1)Nc1nc(-c2ccc(F)c(F)c2)cs1 | inactive |
| COc1ccc(S(=O)(=O)Nc2cccc(C)c2C)c2cccnc12 | inconclusive: 14.1 µM [inhibitor, single point] |
| CCOc1ccc(OCCC(=O)N(CCC(C)C)c2c(N)n(Cc3ccccc3)c(=O)[nH]c2=O)cc1 | inconclusive: 5.62 µM [inhibitor, single point] |
| Cc1cccc(NC(=O)c2cc3c(C)nn(-c4ccccc4)c3s2)c1 | inconclusive: 14.1 µM [inhibitor, single point] |
| Cc1ccc2nc(NC(=O)C(NS(=O)(=O)c3cccc4nsnc34)C(C)C)sc2c1 (stereo unspecified) | inactive |

| Structure (SMILES) | Potency |
| --- | --- |
| Cc1cccc(OCC(=O)NCCCNC(=O)c2ccc(C)nc2)c1 | inactive |
| c1ccc(CSc2nnc(-c3ccco3)o2)cc1 | inactive |
| C/C(=N\NC(=O)c1ccccc1F)c1ccc2c(c1)Nc1ccccc1S2 | inconclusive: 5.62 µM [inhibitor, full curve, poor fit] |
| CC1CN(C(=S)NC(=O)c2ccc([N+](=O)[O-])cc2)CC(C)O1 (stereo unspecified) | inactive |
| CCc1ccc(S(=O)(=O)Nc2ccc3oc(C)c(C(=O)OCCOC)c3c2)cc1 | inactive |
| CCOc1ccc2[nH]c(=O)c(CN(Cc3cccs3)Cc3nnnn3C(C)(C)CC)cc2c1 | inconclusive: 16.4 µM [inhibitor, partial curve] |
| Cc1cc(C(=O)OCC(=O)Nc2ccc(F)c(F)c2)c(C)o1 | inconclusive: 1.16 µM [inhibitor, partial curve, poor fit] |
| COc1ccc(C(=O)c2no[n+]([O-])c2C(=O)c2ccc(OC)cc2)cc1 | inactive |
| CC(=O)Nc1nnc(-c2c(-c3ccccc3Cl)noc2C)o1 | inactive |
| COc1ccc(N2CCN(C(=O)c3cccnc3SCc3cccc(Br)c3)CC2)cc1 | inconclusive: 35.5 µM [inhibitor, single point] |
| COc1ccc(C(=O)C(C)[n+]2ccc(-c3nnc4n3CCCCC4)cc2)cc1 (stereo unspecified) | inconclusive: 1 µM [inhibitor, full curve, poor fit] |
| CCC(C)NS(=O)(=O)c1ccc(S(=O)(=O)N(CC(=O)Nc2ccccc2)Cc2ccco2)cc1 (stereo unspecified) | inconclusive: 9.2 µM [inhibitor, single point] |
| CCN1CCN(c2ccc(S(=O)(=O)N3CCCCC3)cc2NC(=O)c2ccc([N+](=O)[O-])o2)CC1 | inconclusive: 35.5 µM [inhibitor, single point] |
| CS(=O)(=O)c1nc(S(=O)(=O)c2ccc(Cl)cc2)c(NCc2ccccn2)s1 | inactive |
| Cc1ccccc1NC(=O)c1ccc(F)c(S(=O)(=O)N2CCN(c3ccccn3)CC2)c1 | inactive |
| Cc1ccc(N(CC(=O)Nc2ccccc2C(=O)NCc2ccco2)S(=O)(=O)c2ccccc2)cc1C | inconclusive: 20 µM [inhibitor, single point] |
| Cc1cc(=O)oc2c(C)c(OC(C)C(=O)NCc3ccccn3)ccc12 (stereo unspecified) | inconclusive: 4.47 µM [activator, full curve, poor fit] |
| c1ccn(-c2ccc(N3CCOCC3)cc2)c1 | inactive |
| Cc1c(C(=O)O)oc2ccc(S(=O)(=O)N3CC(C)CC(C)C3)cc12 (stereo unspecified) | inconclusive: 0.891 µM [inhibitor, full curve, poor fit] |
| CCN1CCN(CC(O)COCc2ccccc2)CC1 (stereo unspecified) | inactive |
| CCC(=O)NC(NC(=S)Nc1ccc(S(N)(=O)=O)cc1)C(Cl)(Cl)Cl (stereo unspecified) | inconclusive: 7.08 µM [activator, full curve] |
| O=C(c1ccc(Cl)c(S(=O)(=O)N2CCCC2)c1)N1CCN(c2ccc(F)cc2)CC1 | inconclusive: 5.01 µM [inhibitor, full curve, poor fit] |

Some of these compounds in order of molecular weight, rising.

| Structure (SMILES) | Potency |
| --- | --- |
| CCc1ccc(S(=O)(=O)Nc2ccc3oc(C)c(C(=O)OCCOC)c3c2)cc1 | inactive |
| CCN1CCN(c2ccc(S(=O)(=O)N3CCCCC3)cc2NC(=O)c2ccc([N+](=O)[O-])o2)CC1 | inconclusive: 35.5 µM [inhibitor, single point] |
| COc1ccc(N2CCN(C(=O)c3cccnc3SCc3cccc(Br)c3)CC2)cc1 | inconclusive: 35.5 µM [inhibitor, single point] |
| CCC(C)NS(=O)(=O)c1ccc(S(=O)(=O)N(CC(=O)Nc2ccccc2)Cc2ccco2)cc1 (stereo unspecified) | inconclusive: 9.2 µM [inhibitor, single point] |
